Results reported in the supplement of paper PMC10849652.
This is one part of the list.

Chains of the proteins cited; added tags and fusions are not shown. Lines headed by an entry give the natural chain unless they say otherwise; changes in a name come on top.
UniProt O43181, whole entry, looked up: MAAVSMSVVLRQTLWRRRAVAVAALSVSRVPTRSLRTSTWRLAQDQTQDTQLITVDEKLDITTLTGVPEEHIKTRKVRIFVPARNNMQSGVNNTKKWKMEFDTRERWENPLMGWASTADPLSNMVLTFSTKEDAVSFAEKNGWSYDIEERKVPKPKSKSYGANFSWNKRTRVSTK
UniProt Q8NEY1: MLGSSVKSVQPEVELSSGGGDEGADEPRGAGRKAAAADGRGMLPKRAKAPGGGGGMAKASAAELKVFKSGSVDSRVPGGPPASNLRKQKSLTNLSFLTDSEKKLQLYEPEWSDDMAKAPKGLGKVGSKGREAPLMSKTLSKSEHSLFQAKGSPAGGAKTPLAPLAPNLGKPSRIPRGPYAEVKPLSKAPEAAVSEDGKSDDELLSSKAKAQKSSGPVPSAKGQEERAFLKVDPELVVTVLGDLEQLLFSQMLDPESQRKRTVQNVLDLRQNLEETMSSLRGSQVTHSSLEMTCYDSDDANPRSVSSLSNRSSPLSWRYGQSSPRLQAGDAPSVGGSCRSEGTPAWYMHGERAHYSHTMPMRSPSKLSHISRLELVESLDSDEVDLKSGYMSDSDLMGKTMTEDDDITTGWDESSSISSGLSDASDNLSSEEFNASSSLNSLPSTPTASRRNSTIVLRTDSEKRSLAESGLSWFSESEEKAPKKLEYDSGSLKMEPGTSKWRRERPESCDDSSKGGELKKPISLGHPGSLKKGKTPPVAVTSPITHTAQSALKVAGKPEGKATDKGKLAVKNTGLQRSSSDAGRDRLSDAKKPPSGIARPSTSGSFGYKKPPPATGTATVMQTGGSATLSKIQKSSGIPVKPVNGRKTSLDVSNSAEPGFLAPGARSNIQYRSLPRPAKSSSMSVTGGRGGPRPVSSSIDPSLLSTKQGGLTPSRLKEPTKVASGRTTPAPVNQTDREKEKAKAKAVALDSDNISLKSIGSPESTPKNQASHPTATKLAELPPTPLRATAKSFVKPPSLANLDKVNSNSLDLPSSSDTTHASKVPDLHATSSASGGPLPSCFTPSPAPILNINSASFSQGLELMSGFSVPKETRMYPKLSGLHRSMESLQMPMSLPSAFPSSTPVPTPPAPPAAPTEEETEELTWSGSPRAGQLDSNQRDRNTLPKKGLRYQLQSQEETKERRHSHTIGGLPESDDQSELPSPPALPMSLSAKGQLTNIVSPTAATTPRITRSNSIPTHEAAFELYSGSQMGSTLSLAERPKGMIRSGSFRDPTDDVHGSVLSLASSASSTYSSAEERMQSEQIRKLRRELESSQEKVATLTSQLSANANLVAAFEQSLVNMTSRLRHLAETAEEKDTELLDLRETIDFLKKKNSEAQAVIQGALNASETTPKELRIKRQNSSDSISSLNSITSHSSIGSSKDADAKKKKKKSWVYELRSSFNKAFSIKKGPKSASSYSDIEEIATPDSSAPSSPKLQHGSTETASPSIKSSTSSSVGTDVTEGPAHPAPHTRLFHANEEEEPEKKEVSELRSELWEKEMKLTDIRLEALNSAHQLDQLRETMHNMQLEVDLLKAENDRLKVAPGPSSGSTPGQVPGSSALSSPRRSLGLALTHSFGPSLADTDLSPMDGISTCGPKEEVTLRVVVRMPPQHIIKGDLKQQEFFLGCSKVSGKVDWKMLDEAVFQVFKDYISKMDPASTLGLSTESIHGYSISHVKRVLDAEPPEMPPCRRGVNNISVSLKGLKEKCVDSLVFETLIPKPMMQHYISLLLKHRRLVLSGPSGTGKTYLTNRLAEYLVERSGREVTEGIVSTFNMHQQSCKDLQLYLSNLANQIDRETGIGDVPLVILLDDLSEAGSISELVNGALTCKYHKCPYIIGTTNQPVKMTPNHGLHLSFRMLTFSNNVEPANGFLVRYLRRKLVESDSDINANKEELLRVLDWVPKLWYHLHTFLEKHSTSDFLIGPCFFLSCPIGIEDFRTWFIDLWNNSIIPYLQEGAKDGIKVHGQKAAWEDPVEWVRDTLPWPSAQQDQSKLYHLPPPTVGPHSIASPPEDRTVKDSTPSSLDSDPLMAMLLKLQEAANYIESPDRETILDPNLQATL
UniProt Q96NT1: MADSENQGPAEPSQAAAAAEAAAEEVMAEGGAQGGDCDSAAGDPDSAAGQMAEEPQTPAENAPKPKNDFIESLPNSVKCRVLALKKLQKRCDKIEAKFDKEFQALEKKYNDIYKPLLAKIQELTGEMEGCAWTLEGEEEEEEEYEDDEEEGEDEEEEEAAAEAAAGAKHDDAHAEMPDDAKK
NBDY, A0A0U1RRE5, UniProt A0A0U1RRE5, whole entry, looked up: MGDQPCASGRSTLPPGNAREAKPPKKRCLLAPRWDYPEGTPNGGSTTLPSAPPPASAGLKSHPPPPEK
UniProt P61599, whole entry, looked up: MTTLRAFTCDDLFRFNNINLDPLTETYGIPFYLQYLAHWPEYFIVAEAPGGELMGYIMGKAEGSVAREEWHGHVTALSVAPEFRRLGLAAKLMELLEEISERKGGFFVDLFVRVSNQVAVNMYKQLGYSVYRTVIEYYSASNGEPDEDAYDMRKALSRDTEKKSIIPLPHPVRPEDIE
UniProt Q02083: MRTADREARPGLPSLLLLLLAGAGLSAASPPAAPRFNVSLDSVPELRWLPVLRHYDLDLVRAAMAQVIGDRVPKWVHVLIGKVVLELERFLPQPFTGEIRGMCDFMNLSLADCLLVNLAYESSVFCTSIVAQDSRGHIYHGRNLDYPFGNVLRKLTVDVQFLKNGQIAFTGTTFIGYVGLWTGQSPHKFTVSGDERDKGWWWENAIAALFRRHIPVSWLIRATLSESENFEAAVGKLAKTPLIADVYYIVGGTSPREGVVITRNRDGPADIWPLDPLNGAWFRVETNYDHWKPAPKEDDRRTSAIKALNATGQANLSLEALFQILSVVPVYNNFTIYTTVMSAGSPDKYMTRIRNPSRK
UniProt Q9HCH0: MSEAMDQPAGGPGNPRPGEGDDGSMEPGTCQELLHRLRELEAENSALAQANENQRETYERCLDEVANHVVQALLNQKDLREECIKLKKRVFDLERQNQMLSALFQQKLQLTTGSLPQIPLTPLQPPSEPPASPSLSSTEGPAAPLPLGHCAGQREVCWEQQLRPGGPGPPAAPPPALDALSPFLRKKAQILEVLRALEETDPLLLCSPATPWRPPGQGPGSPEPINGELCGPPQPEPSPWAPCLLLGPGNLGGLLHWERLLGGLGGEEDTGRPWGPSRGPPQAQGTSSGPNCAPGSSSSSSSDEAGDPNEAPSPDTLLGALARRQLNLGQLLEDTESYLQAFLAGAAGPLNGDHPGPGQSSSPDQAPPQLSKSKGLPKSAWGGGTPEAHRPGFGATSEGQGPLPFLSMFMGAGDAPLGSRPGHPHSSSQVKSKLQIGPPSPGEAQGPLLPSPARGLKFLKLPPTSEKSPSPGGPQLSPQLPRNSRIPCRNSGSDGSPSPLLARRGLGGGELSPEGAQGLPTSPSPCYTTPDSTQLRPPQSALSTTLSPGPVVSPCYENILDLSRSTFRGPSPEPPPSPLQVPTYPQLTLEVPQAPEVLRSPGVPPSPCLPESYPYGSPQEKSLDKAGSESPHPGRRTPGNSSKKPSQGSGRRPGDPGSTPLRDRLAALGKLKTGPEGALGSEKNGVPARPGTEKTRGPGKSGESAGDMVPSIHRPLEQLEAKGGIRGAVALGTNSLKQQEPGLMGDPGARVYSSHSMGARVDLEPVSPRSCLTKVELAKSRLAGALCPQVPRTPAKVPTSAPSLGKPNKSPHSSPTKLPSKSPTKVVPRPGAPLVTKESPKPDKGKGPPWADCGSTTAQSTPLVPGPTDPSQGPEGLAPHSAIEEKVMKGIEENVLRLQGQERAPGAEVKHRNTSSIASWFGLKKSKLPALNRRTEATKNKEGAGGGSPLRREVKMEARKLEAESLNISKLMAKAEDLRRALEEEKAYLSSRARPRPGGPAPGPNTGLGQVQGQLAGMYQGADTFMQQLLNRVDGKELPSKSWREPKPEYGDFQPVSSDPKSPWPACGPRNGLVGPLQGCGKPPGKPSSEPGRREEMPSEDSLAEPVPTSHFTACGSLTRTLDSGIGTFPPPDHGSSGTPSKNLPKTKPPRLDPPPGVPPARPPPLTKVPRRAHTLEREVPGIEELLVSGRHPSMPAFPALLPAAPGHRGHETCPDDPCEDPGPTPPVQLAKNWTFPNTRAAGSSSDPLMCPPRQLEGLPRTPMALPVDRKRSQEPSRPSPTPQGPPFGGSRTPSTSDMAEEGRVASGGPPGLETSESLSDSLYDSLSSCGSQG

Experiments:
Test in all cases: log2 fold change, soluble protein after heating vs DMSO (PISA); higher = thermal stabilisation; K562 cells, 10 uM, 30 min; active = over 0.2 and 3.5 SD of the protein, either way, in both replicates (recomputed)
[1] = compound: C1=CC=C(C=C1)[C@H](COC2=CC3=C(C=C2)NC(=O)N3)NC(=O)C4=CC=CN(C4=O)CC5=CC(=C(C=C5)F)F
How it was run: (§1)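 K562 cells at 2×10^6 cells/mL were given 10 μM compound for 30 min. Aliquots then went through 3 min of heating across 48°C-58°C, were pooled, and were extracted in PBS with 0.5% NP-40 at 4°C, and the supernatant after 21,000xg for 90 min was quantified by TMTpro 16plex LC-MS/MS with channel sums equalised. Thermal stability relative to control samples, from duplicates, is given as log2 fold change.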

[2] = compound: CC1=C(SC2=C1C(=N[C@H](C3=NN=C(N32)C)CC(=O)N)C4=CC=C(C=C4)Cl)C
How it was run: as §1

[3] = compound: CC1=C2C(=CC=C1)N=C(N(C2=O)C3=CC=CC=C3C)CN4C=NC5=C(N=CN=C54)N
How it was run: as §1

[4] = compound: Cc1sc2c(c1C)C(c1ccc(Cl)cc1)=N[C@@H](CC(=O)OC(C)(C)C)c1nnc(C)n1-2
How it was run: as §1

[5] = compound: c1ccc([C@@H]2C[C@H]2NC2CCNCC2)cc1
How it was run: as §1

Measured: log2 fold change

NDUFS4 (UniProt O43181)
inactive: [1] 0.078 | [2] -0.04 | [3] -0.096 | [4] 0.093 | [5] 0.086

NAV1 (UniProt Q8NEY1)
inactive: [2] 0.048 | [3] -0.008 | [4] 0.288 | [5] -0.043

NDUFA7 (UniProt M0R0N0)
inactive: [1] -0.091 | [3] 0.23

NAP1L1 (UniProt B7Z9C2)
inactive: [1] 0.003 | [3] 0.134

NAP1L5 (UniProt Q96NT1)
inactive: [1] -0.107 | [2] 0.017 | [3] 0.097 | [4] -0.008 | [5] 0.046

NBDY, A0A0U1RRE5
inactive: [1] -0.046 | [2] 0.337 | [4] 0.006 | [5] 0.118

NAMPT (UniProt C9JF35)
inactive: [1] -0.078 | [2] -0.091 | [4] 0.009 | [5] -0.087

NAA20 (UniProt P61599)
inactive: [1] 0.004 | [2] 0.067 | [3] 0.159 | [4] -0.123 | [5] -0.046

NAAA (UniProt Q02083)
inactive: [2] -0.374 | [5] 0.113

NCKIPSD (UniProt Q9NZQ3)
inactive: [3] 0.033

NCKAP5L (UniProt Q9HCH0)
inactive: [3] 0.178

NAA15, A0A0B4J1W3
inactive: [1] -0.147 | [2] -0.082 | [3] 0.042 | [4] 0.014 | [5] -0.029
